Test results as given in PubChem BioAssay AID248 (DTP/NCI, 2004).
The list shows only some results of the screen, not a fair sample: it covers a few groups of compounds. Not every dose and run of a compound is shown. T/C gives the treated animals as a percentage of the vehicle group. For survival time, the PubChem record calls one and a half times the control and up active, and a quarter to a half above the control has no call in these data; cut-offs in other NCI protocols can differ. Some entries show no survivor count and are marked so; the dose need not have been tolerated. Schedules are NCI's codes, taken here to give the interval after Q, in days (D) or hours (H), and the number of doses after X. Some entries hold several experiments; the values are given in rising order.

System: L1210 leukemia ip in BDF1 mice, survival T/C
Assay: NCI In Vivo Anticancer Drug Screen. Data for tumor model L1210 Leukemia (intraperitoneal) in B6D2F1 (BDF1) mice
Conditions: T/C endpoint: mean survival time, higher T/C = longer survival
[1] = dose: 100.0 mg/kg/injection, schedule: Q01DX001 (ip), vehicle: saline

**Q.** With `CC(C)=NN(CCCl)CCCl` as the compound, how does the T/C (dose: 12.5 mg/kg/injection, schedule: Q01DX001 (ip), vehicle: saline) read?
**A.** 101 % of control [survivor count not shown]

**Q.** And the T/C (dose: 22.0 mg/kg/injection, schedule: Q01DX001 (ip), vehicle: saline)?
**A.** 101 % of control [survivor count not shown]

**Q.** And the T/C (dose: 25.0 mg/kg/injection, schedule: Q01DX001 (ip), vehicle: saline)?
**A.** 121 % of control [survivor count not shown]

**Q.** What about the T/C (dose: 25.0 mg/kg/injection, schedule: Q04DX003 (ip), vehicle: saline) of the same compound?
**A.** 103 % of control [survivor count not shown]

**Q.** And the T/C (dose: 33.0 mg/kg/injection, schedule: Q01DX001 (ip), vehicle: saline)?
**A.** 106 % of control [survivor count not shown]

**Q.** And the T/C (dose: 33.0 mg/kg/injection, schedule: Q04DX003 (ip), vehicle: saline)?
**A.** 136 % of control [survivor count not shown]

**Q.** And the T/C (dose: 50.0 mg/kg/injection, schedule: Q01DX001 (ip), vehicle: saline)?
**A.** 121 [survivor count not shown] and 128 % of control [survivor count not shown]

**Q.** And the T/C (dose: 50.0 mg/kg/injection, schedule: Q04DX003 (ip), vehicle: saline)?
**A.** 157 [survivor count not shown] and 167 % of control [survivor count not shown]

**Q.** And the T/C (dose: 75.0 mg/kg/injection, schedule: Q01DX001 (ip), vehicle: saline)?
**A.** 140 % of control [survivor count not shown]

**Q.** And the T/C [1]?
**A.** 229 % of control [survivor count not shown]

**Q.** How did the T/C (dose: 0.2 mg/kg/injection, schedule: Q01DX009 (ip), vehicle: Klucel (hydroxypropylcellulose) (HPC)) turn out when `COc1ccc(C(=O)O)cc1N(CCCl)CCCl` was run?
**A.** 101 % of control [survivor count not shown]

**Q.** And the T/C (dose: 0.5 mg/kg/injection, schedule: Q01DX009 (ip), vehicle: Klucel (hydroxypropylcellulose) (HPC))?
**A.** 110 % of control [survivor count not shown]

**Q.** And the T/C (dose: 1.0 mg/kg/injection, schedule: Q01DX009 (ip), vehicle: Klucel (hydroxypropylcellulose) (HPC))?
**A.** 106 % of control [survivor count not shown]

**Q.** What about the T/C (dose: 1.2 mg/kg/injection, schedule: Q01DX009 (ip), vehicle: Klucel (hydroxypropylcellulose) (HPC)) of the same compound?
**A.** 97 % of control [survivor count not shown]

**Q.** What about the T/C (dose: 1.9 mg/kg/injection, schedule: Q01DX009 (ip), vehicle: Klucel (hydroxypropylcellulose) (HPC)) of the same compound?
**A.** 106 % of control [survivor count not shown]

**Q.** What about the T/C (dose: 2.0 mg/kg/injection, schedule: Q01DX009 (ip), vehicle: Klucel (hydroxypropylcellulose) (HPC)) of the same compound?
**A.** 117 % of control [survivor count not shown]

**Q.** What about the T/C (dose: 2.9 mg/kg/injection, schedule: Q01DX009 (ip), vehicle: Klucel (hydroxypropylcellulose) (HPC)) of the same compound?
**A.** 135 % of control [survivor count not shown]

**Q.** What about the T/C (dose: 3.75 mg/kg/injection, schedule: Q04DX003 (ip), vehicle: Klucel (hydroxypropylcellulose) (HPC)) of the same compound?
**A.** 96 % of control [survivor count not shown]

**Q.** And the T/C (dose: 4.4 mg/kg/injection, schedule: Q01DX009 (ip), vehicle: Klucel (hydroxypropylcellulose) (HPC))?
**A.** 126 [survivor count not shown] and 139 % of control [survivor count not shown]

**Q.** What about the T/C (dose: 4.4 mg/kg/injection, schedule: Q04DX003 (ip), vehicle: Klucel (hydroxypropylcellulose) (HPC)) of the same compound?
**A.** 117 % of control [survivor count not shown]

**Q.** And the T/C (dose: 6.6 mg/kg/injection, schedule: Q01DX009 (ip), vehicle: Klucel (hydroxypropylcellulose) (HPC))?
**A.** 112 [survivor count not shown] and 150 % of control [survivor count not shown]

**Q.** And the T/C (dose: 6.6 mg/kg/injection, schedule: Q04DX003 (ip), vehicle: Klucel (hydroxypropylcellulose) (HPC))?
**A.** 139 [survivor count not shown] and 151 % of control [survivor count not shown]

**Q.** And the T/C (dose: 7.5 mg/kg/injection, schedule: Q04DX003 (ip), vehicle: Klucel (hydroxypropylcellulose) (HPC))?
**A.** 100 % of control [survivor count not shown]

**Q.** What about the T/C (dose: 9.9 mg/kg/injection, schedule: Q01DX009 (ip), vehicle: Klucel (hydroxypropylcellulose) (HPC)) of the same compound?
**A.** 145 % of control [survivor count not shown]

**Q.** What about the T/C (dose: 10.0 mg/kg/injection, schedule: Q01DX009 (ip), vehicle: Klucel (hydroxypropylcellulose) (HPC)) of the same compound?
**A.** 99 % of control [survivor count not shown]

**Q.** What about the T/C (dose: 10.0 mg/kg/injection, schedule: Q04DX003 (ip), vehicle: Klucel (hydroxypropylcellulose) (HPC)) of the same compound?
**A.** 114 [survivor count not shown] and 115 % of control [survivor count not shown]

**Q.** What about the T/C (dose: 15.0 mg/kg/injection, schedule: Q01DX009 (ip), vehicle: Klucel (hydroxypropylcellulose) (HPC)) of the same compound?
**A.** 146 % of control [survivor count not shown]

**Q.** And the T/C (dose: 15.0 mg/kg/injection, schedule: Q04DX003 (ip), vehicle: Klucel (hydroxypropylcellulose) (HPC))?
**A.** 108 [survivor count not shown], 134 [survivor count not shown], 159 % of control [survivor count not shown]

**Q.** What about the T/C (dose: 20.0 mg/kg/injection, schedule: Q04DX003 (ip), vehicle: Klucel (hydroxypropylcellulose) (HPC)) of the same compound?
**A.** 108 % of control [survivor count not shown]

**Q.** What about the T/C (dose: 22.0 mg/kg/injection, schedule: Q01DX009 (ip), vehicle: Klucel (hydroxypropylcellulose) (HPC)) of the same compound?
**A.** 146 % of control [survivor count not shown]

**Q.** Which results are given for `O=Nc1ccc(N(CCCl)CCCl)cc1`?
**A.** T/C (dose: 0.7 mg/kg/injection, schedule: Q01DX001 (ip), vehicle: other): 98 % of control [survivor count not shown]; T/C (dose: 1.0 mg/kg/injection, schedule: Q01DX001 (ip), vehicle: other): 106 % of control [survivor count not shown]; T/C (dose: 1.0 mg/kg/injection, schedule: Q01DX009 (ip), vehicle: other): 97 % of control [survivor count not shown]; T/C (dose: 1.5 mg/kg/injection, schedule: Q01DX001 (ip), vehicle: other): 98 % of control [survivor count not shown]; T/C (dose: 1.5 mg/kg/injection, schedule: Q01DX009 (ip), vehicle: other): 103 % of control [survivor count not shown]; T/C (dose: 2.2 mg/kg/injection, schedule: Q01DX001 (ip), vehicle: other): 108 % of control [survivor count not shown]; T/C (dose: 2.2 mg/kg/injection, schedule: Q01DX009 (ip), vehicle: other): 103 % of control [survivor count not shown]; T/C (dose: 2.5 mg/kg/injection, schedule: Q01DX001 (ip), vehicle: saline): 111 % of control [survivor count not shown]; T/C (dose: 3.3 mg/kg/injection, schedule: Q01DX009 (ip), vehicle: other): 116 [survivor count not shown] and 126 % of control [survivor count not shown]; T/C (dose: 5.0 mg/kg/injection, schedule: Q01DX001 (ip), vehicle: saline): 138 % of control [survivor count not shown]; T/C (dose: 5.0 mg/kg/injection, schedule: Q01DX009 (ip), vehicle: other): 135 % of control [survivor count not shown]; T/C (dose: 7.5 mg/kg/injection, schedule: Q01DX009 (ip), vehicle: other): 126 % of control [survivor count not shown]; T/C (dose: 10.0 mg/kg/injection, schedule: Q01DX001 (ip), vehicle: saline): 130 % of control [survivor count not shown]; T/C (dose: 11.25 mg/kg/injection, schedule: Q01DX009 (ip), vehicle: other): 134 % of control [survivor count not shown]; T/C (dose: 15.0 mg/kg/injection, schedule: Q01DX001 (ip), vehicle: saline): 113 % of control [survivor count not shown]

**Q.** `Nc1c(Cl)cc(CN(CCCl)CCCl)cc1Cl` was tested. Which T/C [1] did it give?
**A.** 106 % of control [survivor count not shown]

**Q.** What about the T/C (dose: 200.0 mg/kg/injection, schedule: Q01DX001 (ip), vehicle: saline) of the same compound?
**A.** 108 % of control [survivor count not shown]

**Q.** What does the source list for `CCOc1ccc([N+](=O)[O-])cc1CN(CCBr)CCBr`?
**A.** T/C (dose: 100.0 mg/kg/injection, schedule: Q01DX001 (ip), vehicle: Klucel (hydroxypropylcellulose) (HPC)): 94 % of control [survivor count not shown]; T/C (dose: 200.0 mg/kg/injection, schedule: Q01DX001 (ip), vehicle: Klucel (hydroxypropylcellulose) (HPC)): 96 % of control [survivor count not shown]; T/C (dose: 400.0 mg/kg/injection, schedule: Q01DX001 (ip), vehicle: Klucel (hydroxypropylcellulose) (HPC)): 105 % of control [survivor count not shown]

**Q.** What does the source list for `CN(/N=C\c1ccc(N(CCCl)CCCl)cc1)C(=N)N`?
**A.** T/C (dose: 6.0 mg/kg/injection, schedule: Q01DX001 (ip), vehicle: carboxymethylcellulose (CMC)): 96 % of control [survivor count not shown]; T/C (dose: 12.0 mg/kg/injection, schedule: Q01DX001 (ip), vehicle: carboxymethylcellulose (CMC)): 100 % of control [survivor count not shown]; T/C (dose: 25.0 mg/kg/injection, schedule: Q01DX001 (ip), vehicle: carboxymethylcellulose (CMC)): 94 % of control [survivor count not shown]; T/C (dose: 50.0 mg/kg/injection, schedule: Q01DX001 (ip), vehicle: carboxymethylcellulose (CMC)): 113 % of control [survivor count not shown]; T/C (dose: 100.0 mg/kg/injection, schedule: Q01DX001 (ip), vehicle: carboxymethylcellulose (CMC)): 100 [survivor count not shown] and 101 % of control [survivor count not shown]
